The values below come from paper PMC7819943, “Rice protein-binding microarrays: a tool to detect cis-acting elements near promoter regions in rice”.

This is one part of the list.

The assay deals with T1, OsSMF1 (Oryza sativa, UniProt Q6ZLB0 1-436).
T1 sequence: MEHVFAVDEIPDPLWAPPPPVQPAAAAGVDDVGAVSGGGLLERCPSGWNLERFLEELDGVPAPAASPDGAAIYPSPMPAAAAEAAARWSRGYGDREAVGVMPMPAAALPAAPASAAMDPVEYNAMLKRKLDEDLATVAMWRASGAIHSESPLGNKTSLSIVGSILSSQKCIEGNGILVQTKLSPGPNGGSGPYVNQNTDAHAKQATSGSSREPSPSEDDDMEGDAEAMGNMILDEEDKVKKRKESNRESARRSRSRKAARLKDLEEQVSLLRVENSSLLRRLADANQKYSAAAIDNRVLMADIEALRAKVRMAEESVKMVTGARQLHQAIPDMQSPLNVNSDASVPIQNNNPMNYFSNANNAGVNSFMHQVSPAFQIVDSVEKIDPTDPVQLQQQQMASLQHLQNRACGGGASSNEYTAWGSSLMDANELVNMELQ
In words: protein-binding microarray (RPBM); PBS, 2% BSA, 51.3 ng/ul salmon testes DNA, 50 uM zinc acetate, 200 nM TF, 25 C, 1 h; high values mean tight binding. The following applies: protein: recombinant; tags: N-terminal polyhistidine and DsRed monomer fusion (pET32a); chain copies: 2; label: CyDye5-dUTP incorporated in the synthesized complementary strand; 3' TTTTT single-stranded linker to array surface; dsDNA, one strand shown. The procedure, abridged: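 The binding signal is fluorescence intensity per feature, in arbitrary units, read on an Axon 4000B scanner. Polyhistidine- and DsRed-tagged transcription factors (N-terminal fusions) from E. coli BL21-CodonPlus were purified on Ni–NTA and applied at 200 nM for 1 h at 25 °C to a double-stranded, BSA-blocked custom Agilent array in buffer with 50 µM zinc acetate.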
For “GGAGTATGACAGGTGGGGCCGCGTCAGGGGTATTTTGGTCCGGAGTCACCTAGTGCAG”, the binding signal is 4750 fluorescence intensity (a.u.).

For “ATGGTGAACACGACTGGATGAGTGGGTCAAACATGTTCCCCGGAGTCACCTAGTGCAG”, the binding signal was 3180 fluorescence intensity (a.u.).

On to “AACGAGCCGAACCGAGCCGAGCTTGGTCACGAGCAGAGCTCGGAGTCACCTAGTGCAG”, for which the binding signal is 3170 fluorescence intensity (a.u.).

With “CCCTATTTATACAGCTCAGCACCCTCACTCCCACTCACAACGGAGTCACCTAGTGCAG”, the binding signal was 6570 fluorescence intensity (a.u.).

“GTAGGGGTAGGGGTGGCGTGGCGTGTGCCAATGACCTAACCGGAGTCACCTAGTGCAG”: the binding signal is 5320 fluorescence intensity (a.u.).

Take “AGCCAGGAACCTGCCAGCGTGTGCACTCCACGAACAGGGCCGGAGTCACCTAGTGCAG”: the binding signal was 4310 fluorescence intensity (a.u.).

On to “TTCCGATCCGAGGTCAAATTGGGAGTGCTACGCGGGAAAGCGGAGTCACCTAGTGCAG”, for which the binding signal was 38200 fluorescence intensity (a.u.).

Regarding “TAAAATTTATTACTACTCGCGGCCACGTAGATGCAACGCGCGGAGTCACCTAGTGCAG”, the binding signal is 8070 fluorescence intensity (a.u.).

For the sequence “AGGCCGCCGACGAGCTTGAGGATGACCTCGCCGTCCTCCTCGGAGTCACCTAGTGCAG”, the binding signal is 3320 fluorescence intensity (a.u.).

Take “TCATCTGTATGATATATAGTACTACATCTTTTGACATTTTCGGAGTCACCTAGTGCAG”: the binding signal is 3690 fluorescence intensity (a.u.).

Take “CGCGTCGCTCACGGGGCTGCACCTCCAGCTCAACGCCTTCCGGAGTCACCTAGTGCAG”: the binding signal was 4420 fluorescence intensity (a.u.).

In the case of “TTTCTGTATCTTTGACATCGGCGCTCCTAATATGTCACCGCGGAGTCACCTAGTGCAG”, the binding signal is 4180 fluorescence intensity (a.u.).

For “TCGTCGTCCACCAAGAGGCTGGTTCGTCCTCACCATCTCGCGGAGTCACCTAGTGCAG”, the binding signal was 6020 fluorescence intensity (a.u.).

“GAACATTTGAGTCATCTACTATCTTGCAATATCACTCTTCCGGAGTCACCTAGTGCAG”: the binding signal was 6570 fluorescence intensity (a.u.).

Turning to “ACTAGCTGGACGGTCAATCCACGTGGTTTGTTCATTGCCTCGGAGTCACCTAGTGCAG”, the binding signal was 9780 fluorescence intensity (a.u.).

For “GCCGCACACCAACTGACGTGTGGGGCCTCCAAACCGCAAGCGGAGTCACCTAGTGCAG”, the binding signal is 5240 fluorescence intensity (a.u.).

As to “TCTATCAACCCGTCACCCTATCACACGTCATCGACAAAGGCGGAGTCACCTAGTGCAG”, the binding signal was 23800 fluorescence intensity (a.u.).

“GCAAGGATCATGTCAGGAGAACCCAGCATGGTTAATGCATCGGAGTCACCTAGTGCAG”: the binding signal is 17400 fluorescence intensity (a.u.).

As to “GCACCTTCCCCGCCACGTGTTCCGCCACCGCTCTCAACTCCGGAGTCACCTAGTGCAG”, the binding signal was 16600 fluorescence intensity (a.u.).

For “TACTCAATCCGGGGTGGTTTTGGGTCCACGTGGCAGTCCACGGAGTCACCTAGTGCAG”, the binding signal was 35300 fluorescence intensity (a.u.).

For the sequence “CGGCGGCATCGCTGATGTCATCATCATCTCTCCCCTTCCTCGGAGTCACCTAGTGCAG”, the binding signal is 13600 fluorescence intensity (a.u.).

In the case of “CGCGACAACACACCGCCACAAGATGACGCTGACGCACGCTCGGAGTCACCTAGTGCAG”, the binding signal was 5500 fluorescence intensity (a.u.).

Regarding “CTCTAGTTAGGTGATGACACCCGTGGACCAACATGCCTGGCGGAGTCACCTAGTGCAG”, the binding signal is 3200 fluorescence intensity (a.u.).

Take “AAAATTTGGTCAGATCAGATGAGTCATGAAATGGATGGATCGGAGTCACCTAGTGCAG”: the binding signal is 12000 fluorescence intensity (a.u.).

In the case of “ACGTGGTGTTGTTGACACAGCAGCTAGTCAGCCAGCAGGACGGAGTCACCTAGTGCAG”, the binding signal was 5350 fluorescence intensity (a.u.).

In the case of “AATGACGTTTTGACTTATCGTCAGTCGTGACATGTAAGTGCGGAGTCACCTAGTGCAG”, the binding signal is 26200 fluorescence intensity (a.u.).

On to “TAATTTTGTTCTTATTCTAATGCCACGTAAGCGCCACGTACGGAGTCACCTAGTGCAG”, for which the binding signal was 29400 fluorescence intensity (a.u.).

“TGCTAAATGTGACAATGCGAGAGCCAATCAGCCAAAGCAGCGGAGTCACCTAGTGCAG”: the binding signal is 3350 fluorescence intensity (a.u.).

Take “AAGGTAGAGTCAAATAGAAGCTCTATATCATGTAGACACTCGGAGTCACCTAGTGCAG”: the binding signal is 3360 fluorescence intensity (a.u.).

As for “TAATTTTGTGACACACCGAATTAAATGGACAGTTTTGTGACGGAGTCACCTAGTGCAG”, the binding signal was 3540 fluorescence intensity (a.u.).

“GTTGGGTCGTTGGGATCACGTGGTGGCGAGAGTGAAGACGCGGAGTCACCTAGTGCAG”: the binding signal is 3670 fluorescence intensity (a.u.).

With “CCCAAACACATTTTCACTCCTAGATCCAAGTCAACCGACCCGGAGTCACCTAGTGCAG”, the binding signal was 3340 fluorescence intensity (a.u.).

Turning to “CTACATTGCTAATCCAAATAATTAGCACTAATCACGAAATCGGAGTCACCTAGTGCAG”, the binding signal was 5180 fluorescence intensity (a.u.).

“ATTTCTACTCCGACCACTGGAACTAGTGAATGATGCGGCGCGGAGTCACCTAGTGCAG”: the binding signal is 3720 fluorescence intensity (a.u.).

With “TCTCTCTCTCTCTCTCTCTCTCATGGTCATCGCTTCCCTTCGGAGTCACCTAGTGCAG”, the binding signal was 4060 fluorescence intensity (a.u.).

Take “GAATGGGCCGGCCTAGCTAAGAAGCAAAACTGGGTATAGTCGGAGTCACCTAGTGCAG”: the binding signal is 4210 fluorescence intensity (a.u.).

Consider “ACCATCCGATTTCCGCGCCCGTGATTTCACACGTCTCGCGCGGAGTCACCTAGTGCAG”, for which the binding signal was 3570 fluorescence intensity (a.u.).

As for “CACGCCACGCCACGCCTCACCTCACCACCACCAGGCACCACGGAGTCACCTAGTGCAG”, the binding signal was 5930 fluorescence intensity (a.u.).

Take “TCCTTGTTTATTTCCTTTCATTCGAACTAGAATTGTAATCCGGAGTCACCTAGTGCAG”: the binding signal is 19500 fluorescence intensity (a.u.).

As for “AAAAGTAGTTTTGCACGTCCCTCCAGCATCAGCATCGGACCGGAGTCACCTAGTGCAG”, the binding signal is 4470 fluorescence intensity (a.u.).

Consider “AATACGCATCTAGTCGGCCGCGCCAAACGGCCAAACCCATCGGAGTCACCTAGTGCAG”, for which the binding signal is 3310 fluorescence intensity (a.u.).

On to “CTGTTAATTCCAGTGTTAGAGATCCACGTCGTGTTGATCACGGAGTCACCTAGTGCAG”, for which the binding signal was 4940 fluorescence intensity (a.u.).
